Results from the supplement of paper PMC6078165.
The reference is the same well before dosing, and untreated signal decays as well.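 Fibroblast labels name human fibroblasts: mostly primary ones from tissues such as uterus (C12385, HUF), lung (H6013), bone (Hs27A), adrenal (HADF) and skin (WS1), plus mammary HMF and breast cancer-associated Hs343T. The cancer cells are basal-like or mesenchymal-like triple-negative breast cancer lines. The paper calls a changed response a hit when it shifts by more than 3x the replicate standard deviation. The tissue of the other fibroblasts is not given here.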

System: Hs578T
Assay: relative JC-1 red fluorescence (viability) vs pre-drug, coculture with fibroblast (fraction); higher = more viable cancer cells
Method: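 JC-1 labelled TNBC cells cocultured 1:1 (1,500 cells each) with CellTrace Violet stained primary or stromal fibroblasts in 384-well plates in FluoroBrite medium, treated with one of 42 anticancer drugs at 0.1, 1, 10 or 100 uM. JC-1 red fluorescence (mitochondrial integrity in cancer cells only) was read by plate reader every 8 h for 72 h. Values are normalised to each well's pre-drug value. The stock of one drug was tenfold lower, so its dose labels may be too high.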

CN(Cc1cnc2nc(N)nc(N)c2n1)c1ccc(C(=O)N[C@@H](CCC(=O)O)C(=O)O)cc1 [Methotrexate]
relative JC-1 red fluorescence
Settings	8 h	16 h	24 h	32 h	40 h	48 h	56 h	64 h	72 h
0.1 µM	0.929	0.801	0.738	0.695	0.63	0.595	0.585	0.555	0.558
1 µM	0.901	0.774	0.73	0.686	0.636	0.6	0.599	0.578	0.578

relative JC-1 red fluorescence
Settings	8 h	16 h	24 h	32 h	40 h	48 h	56 h	64 h	72 h
0.1 µM, coculture fibroblast: C12385	0.832	0.71	0.673	0.582	0.531	0.5073	0.485	0.491	0.487
0.1 µM, coculture fibroblast: H6013	0.905	0.823	0.78	0.765	0.729	0.716	0.695	0.696	0.671
0.1 µM, coculture fibroblast: H6019	0.767	0.677	0.669	0.584	0.551	0.531	0.501	0.492	0.473
0.1 µM, coculture fibroblast: H6076	0.9145	0.797	0.7554	0.741	0.694	0.688	0.666	0.659	0.666
0.1 µM, coculture fibroblast: H6231	0.904	0.803	0.687	0.649	0.573	0.548	0.508	0.486	0.466
0.1 µM, coculture fibroblast: HADF	0.92	0.846	0.763	0.723	0.683	0.657	0.6301	0.6231	0.597
0.1 µM, coculture fibroblast: HCFa	0.8719	0.78104	0.719	0.668	0.607	0.577	0.538	0.519	0.484
0.1 µM, coculture fibroblast: HCPF	0.911	0.7898	0.731	0.702	0.646	0.623	0.602	0.57	0.545
0.1 µM, coculture fibroblast: HHSteC	0.896	0.809	0.76	0.728	0.686	0.653	0.628	0.611	0.571
0.1 µM, coculture fibroblast: HMF	0.947	0.852	0.831	0.819	0.774	0.759	0.719	0.704	0.694
0.1 µM, coculture fibroblast: HPFa	0.954	0.866	0.817	0.793	0.776	0.762	0.738	0.729	0.703
0.1 µM, coculture fibroblast: HUF	0.881	0.741	0.703	0.603	0.544	0.505	0.477	0.467	0.458
0.1 µM, coculture fibroblast: Hs27A	0.8826	0.799	0.724	0.677	0.63	0.624	0.598	0.602	0.571
0.1 µM, coculture fibroblast: Hs343T	0.9125	0.7617	0.738	0.73	0.668	0.655	0.634	0.618	0.628
0.1 µM, coculture fibroblast: WS1	0.823	0.68	0.639	0.557	0.501	0.4849	0.462	0.463	0.465
1 µM, coculture fibroblast: C12385	0.8314	0.689	0.644	0.557	0.498	0.468	0.452	0.446	0.45
1 µM, coculture fibroblast: H6013	0.9332	0.862	0.83	0.819	0.783	0.781	0.761	0.77	0.778
1 µM, coculture fibroblast: H6019	0.769	0.662	0.648	0.556	0.518	0.491	0.462	0.448	0.428
1 µM, coculture fibroblast: H6076	0.8936	0.7968	0.763	0.75	0.706	0.697	0.686	0.673	0.67
1 µM, coculture fibroblast: H6231	0.8881	0.809	0.706	0.67	0.599	0.571	0.532	0.508	0.497
1 µM, coculture fibroblast: HADF	0.932	0.8275	0.784	0.758	0.74	0.726	0.699	0.704	0.685
1 µM, coculture fibroblast: HCFa	0.90992	0.844	0.806	0.762	0.711	0.699	0.669	0.65	0.606
1 µM, coculture fibroblast: HCPF	0.944	0.849	0.806	0.77	0.723	0.714	0.708	0.661	0.619
1 µM, coculture fibroblast: HHSteC	0.912	0.798	0.729	0.685	0.629	0.588	0.556	0.53	0.493
1 µM, coculture fibroblast: HMF	0.884	0.751	0.721	0.693	0.6425	0.613	0.585	0.557	0.551
1 µM, coculture fibroblast: HPFa	0.94708	0.8511	0.7923	0.748	0.724	0.695	0.652	0.638	0.608
1 µM, coculture fibroblast: HUF	0.8996	0.738	0.74	0.643	0.595	0.563	0.53	0.52	0.522
1 µM, coculture fibroblast: Hs27A	0.8681	0.8011	0.72	0.68	0.638	0.6343	0.607	0.617	0.586
1 µM, coculture fibroblast: Hs343T	0.975	0.8644	0.823	0.797	0.722	0.691	0.659	0.632	0.622
1 µM, coculture fibroblast: WS1	0.82	0.698	0.654	0.576	0.521	0.504	0.485	0.481	0.484
